Results from patent US12697313B2, “Methods of treating anemia using formoterol or a pharmaceutically acceptable salt thereof” (Dana-Farber Cancer Institute, Inc., priority 2022, dated 2026).
Structures can show the parent of a compound that is named as a salt.

System: primary human HSPCs
Assay: Erythroid differentiation liquid culture of primary human HSPCs, flow cytometry
Assay type: cell-based
Conditions: 1/5 μM, n=5 healthy donors
Protocol: To address this, primary human HSPCs were treated with varying doses of FF (Selleckchem). […] To ascertain if FF administration plays a role further upstream in the erythroid differentiation pathway, methylcellulose colony-formation assays were performed.
CD34+ primary human hematopoietic stem and progenitor cells (HSPCs) were obtained from Fred-Hutchinson Cancer Research center, Seattle, USA and cultured, as previously described. Formoterol fumarate was purchased from Selleckchem (#S2020) and Sigma (#F9552), dissolved (in DMSO) and stored as per manufacturer's instructions, and used at the final working concentrations as indicated.

COc1ccc(C[C@@H](C)NC[C@H](O)c2ccc(O)c(NC=O)c2)cc1 [Arf, N-[2-hydroxy-5-[(1R)-1-hydroxy-2-[[(1R)-2-(4-methoxyphenyl)-1-methylethyl]amino]ethyl]phenyl]-formamide, (2R,3R)-2,3-dihydroxybutanedioate (1:1 salt)]
erythroid differentiation (CD235a) (FIG. 2): induces erythroid differentiation (CD235a) dose-dependently | megakaryocytic differentiation (CD41/61) (FIG. 12): does not influence megakaryocytic differentiation (CD41/61)
